Measurements as given in article doi:10.1101/2022.07.21.500829.
No constants are given. Whether binding was seen depends on the method and setting. In cells and extracts the contact can be indirect. Some results given as binding are weak or reduced against the parent protein; the word gives no strength.

The chains behind the UniProt entries cited, without tags or fusion partners. Residues count along the entry.
UniProt P41439, residues 23-245: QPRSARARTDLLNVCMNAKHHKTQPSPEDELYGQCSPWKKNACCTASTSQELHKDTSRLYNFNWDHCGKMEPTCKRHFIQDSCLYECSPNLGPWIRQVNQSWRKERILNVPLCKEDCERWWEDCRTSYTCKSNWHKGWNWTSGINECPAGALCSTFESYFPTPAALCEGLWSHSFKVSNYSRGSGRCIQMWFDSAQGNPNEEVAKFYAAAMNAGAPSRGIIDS
UniProt Q92743, residues 23-480: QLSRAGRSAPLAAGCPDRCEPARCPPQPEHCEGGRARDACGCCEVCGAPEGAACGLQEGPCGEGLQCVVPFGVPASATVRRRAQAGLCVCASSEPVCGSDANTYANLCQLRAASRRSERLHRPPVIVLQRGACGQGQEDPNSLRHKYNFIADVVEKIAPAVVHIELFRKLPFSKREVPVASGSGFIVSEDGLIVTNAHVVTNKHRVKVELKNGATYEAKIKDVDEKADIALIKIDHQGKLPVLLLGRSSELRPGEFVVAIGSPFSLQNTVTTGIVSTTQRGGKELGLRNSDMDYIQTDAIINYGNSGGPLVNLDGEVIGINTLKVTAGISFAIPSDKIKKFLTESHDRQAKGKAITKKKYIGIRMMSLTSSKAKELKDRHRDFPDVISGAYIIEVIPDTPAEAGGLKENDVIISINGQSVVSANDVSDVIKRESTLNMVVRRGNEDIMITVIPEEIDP

Molecular target: folate receptor gamma (FOLR3) with FLAG tag (human) (UniProt P41439)
Experiment: pull-down

binding: binds
Substance: serine protease HTRA1 (from UniProt Q92743 23-480) (enzyme)
